Laboratory results from patent US20070116784A1, “Imatinib combinations for head and neck cancers” (priority 2003, published 2007).

Experiments:
HN3 ACC primary culture = assay: cells; type: cell-based; conditions: Homo sapiens
HN5 ACC primary culture = assay: Growth inhibition assay (SRB); type: cell-based; conditions: Homo sapiens
FaDu = assay: Growth inhibition assay (SRB); type: cell-based; conditions: Homo sapiens
[1] = tested on: c-kit over-expressing cell line A549; assay: cells; conditions: Homo sapiens
DOK = assay: Growth inhibition assay (SRB); type: cell-based
[2] = tested on: c-kit over-expressing cell line A549; conditions: A549 treated in the presence of steel factor (c-kit ligand), compared with 15 μM without
Cal27 = assay: Growth inhibition assay (SRB); type: cell-based; conditions: Homo sapiens, CAL-27
HN1 ACC primary culture = assay: cells; type: cell-based; conditions: Homo sapiens
[3] = tested on: cell lines and ACC primary cultures; assay: cells; conditions: Homo sapiens

For Cc1ccc(NC(=O)c2ccc(CN3CCN(C)CC3)cc2)cc1Nc1nccc(-c2cccnc2)n1 [Compound I], the IC50 (HN3 ACC primary culture) was 27.1 µM, the IC50 (HN5 ACC primary culture) was 16.9 µM and the IC50 (FaDu) was 33.7 µM. For the same compound, the IC50 [1] was 15 µM, the IC50 (DOK) was 30.1 µM and the “IC50 in the presence of steel factor” value [2] was “un-altered”. It also gave an IC50 (Cal27) of 18.1 µM, an IC50 (HN1 ACC primary culture) of 33.2 µM and an IC50 [3] of 17 to 33 µM.
